Results of single-concentration screens

Sequences of proteins named here, by UniProt entry; tags and fusion partners are left off.
UniProt P9WPC5, whole entry: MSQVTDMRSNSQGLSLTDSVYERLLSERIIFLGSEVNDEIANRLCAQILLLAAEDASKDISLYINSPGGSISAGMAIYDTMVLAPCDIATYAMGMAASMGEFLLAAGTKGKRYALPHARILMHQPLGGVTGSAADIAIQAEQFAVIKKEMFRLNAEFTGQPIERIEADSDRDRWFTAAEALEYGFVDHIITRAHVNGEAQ
UniProt P9WPC3, whole entry partner: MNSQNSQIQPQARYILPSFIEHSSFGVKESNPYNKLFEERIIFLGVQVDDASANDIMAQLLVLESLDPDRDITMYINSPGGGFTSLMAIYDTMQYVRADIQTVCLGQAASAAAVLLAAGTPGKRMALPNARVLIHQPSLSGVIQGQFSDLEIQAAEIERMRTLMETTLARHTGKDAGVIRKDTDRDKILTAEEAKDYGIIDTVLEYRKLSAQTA

Data taken from ChEMBL document CHEMBL3988442, “University of Dundee, Small-Polar-MMV Screening Library” (2021).

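Protease assay of ClpP1P2, read by the AMC dye that it sets free. Target: ClpP1P2, Mycobacterium tuberculosis (UniProt P9WPC5 and UniProt P9WPC3). Tested at 50 µM. Direction is inferred from only a few compounds that gave an IC50; most scored high, so higher reads as stronger inhibition. Most other retested compounds had strongly negative values. Of about 69,000 compounds tested this way, about 10 (0.015%) reached 50% or more in at least one test.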

Values are the deposited “Percent Effect”, in %. The record does not define 0% and 100%; most values in the screen are far below 50% and negative numbers occur (in some assays of this library far below -100). Compounds were drawn at random from those tested, without regard to their results.

| structure | Percent Effect |
|---|---|
| `COc1cccc2ccc(CN3CCN(c4ccncc4)CC3)nc12` | -12.65 |
| `OCC1CCCN1c1cc(NCCc2c[nH]c3ccccc23)ncn1` (stereo not drawn) | -2.76 |
| `Cc1cc(C(F)(F)F)nn1CCCNC(=O)C1CCCC1` | -15.44 |
| `CCc1nccn1CCC(=O)N1CCCC1c1cncc(NC)n1` (stereo not drawn) | -94.26 |
| `CC(=O)NC(=O)C1(CCCc2ccncc2)CCN1` (stereo not drawn) | 10.89 |
| `CC(C)(CNC(=O)OC(C)(C)C)NC(=O)C1CC(=O)N(C2CC2)C1` (stereo not drawn) | -0.326 |
| `Cc1c(-c2cccs2)nn2c(O)c3c(nc12)CN(C(=O)C1CC1)C3` | -82.11 |
| `COc1cc(OC)cc(C(=O)Nc2ncnc3c2CCC3)c1` | 22.61 |
| `O[C@@H]1C[C@@H](c2nc(Cc3ccccc3)no2)N(CC2CC2)C1` | -5.619 |
| `CS(=O)(=O)NCc1nnc2n1CCN(Cc1cccs1)C2` | 4.074 |
| `CN1CCN(c2ccc(NS(=O)(=O)c3ccc(Cl)s3)cc2C(=O)O)CC1` | -8.865 |
| `COc1ccc(C(C)N2CCC(OC)CC2)cc1Cl` (stereo not drawn) | 12.74 |
| `CCCn1c(C)c(CC(=O)N(C)CCOC)c2c1CC(C)(C)CC2=O` | -11.13 |
| `COCC1CCCN(C(=O)c2cc(Cn3ccc4ccccc43)[nH]n2)C1` (stereo not drawn) | -7.372 |
| `N#Cc1ccc(OCCOc2ccccc2C(=O)N2CCOCC2)cc1` | 13.13 |
| `N#Cc1ccccc1CN(CCO)Cc1ccsc1` | -25.52 |
| `CC(CNS(N)(=O)=O)c1ccc(F)c(F)c1` (stereo not drawn) | -5.477 |
| `CC(C)Oc1ncccc1CNC(=O)c1ccccn1` | -26.43 |
| `COc1ccc(C[C@H]2CN(c3nnc(C)s3)CC[C@H]2OC)cc1` | -7.916 |
| `O=C1CN(C(=O)c2cc(Cl)ccc2F)c2ccncc2N1` | -8.4 |
| `CC(C)Cn1ccc2c(NC(=O)c3n[nH]c4c3CCC4)cccc21` | -3.519 |
| `COc1c(C)cnc(CNC(=O)CCc2nc3ccccc3[nH]2)c1C` | -0.8181 |
| `Cc1nc(CN(C)CC2CCCN2c2cccnn2)nc2ccccc12` (stereo not drawn) | 3.543 |
| `Cc1ccc2c(c1)C(=O)CC1(CCN(Cc3ccccc3)CC1)O2` | -24.46 |
| `CSc1nccn1-c1cccc(C(=O)NCC(F)(F)F)c1` | -21.04 |
| `CN(Cc1ccc(Cl)s1)C(=O)NCc1nnc2n1CCC2` | 12.13 |
| `CCn1c(CN(C)C)nnc1C1CCN(Cc2ccc(Cl)c(F)c2)CC1` | -5.325 |
| `Cc1nc(C)n(CC2CCCCN2CCc2ccncc2)n1` (stereo not drawn) | -14.24 |
| `CC(C)c1nc(C2CCCN(c3cnc4ccccc4n3)C2)no1` (stereo not drawn) | -4.749 |
| `Cc1ccccc1NC(=O)CNC(C)COc1ccccc1` (stereo not drawn) | -15.07 |
| `Cc1ccc(C(=O)N2CCCC(n3cncn3)C2)o1` (stereo not drawn) | -9.671 |
| `COc1ccccc1CC(C)(C)NC(=O)CC(F)(F)F` | -5.051 |
| `CN(C)CC(=O)Nc1ccc(C(=O)N(C)CCc2cn[nH]c2)cc1` | -6.114 |
| `CCc1ncncc1C(=O)NCCNC(=O)c1ccc(C)c(F)c1` | 7.78 |
| `Cc1noc(C)c1CNC(=O)NCCC(=O)N1CCCc2ccccc21` | -2.398 |
| `Cc1nc(C(C)C)sc1C(=O)N1CCN(C2CN3CCC2CC3)CC1` (stereo not drawn) | -3.03 |
| `Cc1ccc(CNC(=O)c2cc(CN3CCC(O)CC3)on2)s1` | -2.124 |
| `COc1cccc(CNc2nnc(C(C)(C)C)o2)c1OC` | 2.178 |
| `O=C(NCCn1ccc(-c2ccncc2)n1)c1ccc2c(c1)OCO2` | -9.283 |
| `COCCN(Cc1nccs1)C(=O)c1cc(-c2ccc(C)o2)n[nH]1` | 3.925 |
| `O=C(NCc1nn(-c2ccccc2)c2c1CCC2)NC1CC1` | 12.62 |
| `CNS(=O)(=O)Cc1ccc(CNC(=O)Nc2cccnc2)cc1` | 15.18 |
| `COc1ccc(-c2nc(CCNc3nnc(C)c(C)c3C#N)co2)cc1` | 5.096 |
| `O=C(C1CCCCC1)N1CCC(c2n[nH]c3nccnc23)CC1` | -15.41 |
| `CCC(CC)C(=O)N1CCc2nc(N3CCCC3)nc(C)c2CC1` | 10.47 |
| `CNc1cnc(CC2COCCN(CCOc3ccccc3)C2)cn1` (stereo not drawn) | -152.6 |
| `CCOCC(=O)NCc1cc(Br)ccc1OC(F)F` | -8.924 |
| `O=C(CCNC(=O)c1ccoc1)Nc1c(F)cccc1F` | 20.13 |